Laboratory results taken from patent EP1746106A2.
No constants are given. Whether binding was seen depends on the method and setting. Binding seen in cells or lysates may run through a third protein. Some binding calls cover weakened binding; strength is not graded here. Tags and fused reporters may be left off the sequences shown.

By UniProt entry, the sequences of proteins in these tests, tags left out. Residues count along the entry.
UniProt Q9D777, residues 96-241: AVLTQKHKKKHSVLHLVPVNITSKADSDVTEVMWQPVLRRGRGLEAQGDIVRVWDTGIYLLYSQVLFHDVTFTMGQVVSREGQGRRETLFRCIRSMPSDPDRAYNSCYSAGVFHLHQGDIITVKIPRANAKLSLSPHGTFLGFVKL

What was measured:
[1] = target: FLAG-tagged soluble extracellular domain of murine APRIL (PS784, also called LT032) (murine) (UniProt Q9D777); experiment: co-immunoprecipitation, Western blot (Figure 10C legend)
[2] = target: FLAG-tagged soluble extracellular domain of murine APRIL (PS784, also called LT032) (murine) (UniProt Q9D777); experiment: co-immunoprecipitation with protein A-Sepharose, anti-FLAG M2 Western blot

binding [1]: binds | binding [2]: binds
B1: human TACI(1-160)-Ig fusion protein (Fc fusion, not shown: a dimerising Fc or GST)
chain: MSGLGRSRRGGRSRVDQEERFPQGLWTGVAMRSCPEEQYWDPLLGTCMSCKTICNHQSQRTCAAFCRSLSCRKEQGKFYDHLLRDCISCASICGQHPKQCAYFCENKLRSPVNLPPELRRQRSGEVENNSDNSGRYQGLEHRGSEASPALPGLKLSADQV
